Earlier results, collected in US8563616B2, “Desensitizing drug product” (priority 2009, dated 2013).

Details: in the mixtures that formed a homogenous oil; cited from earlier work

For CCN(CC)CC(=O)Nc1c(C)cccc1C [Lidocaine, lidocaine], the chemical stability is listed as “chemically stable”.
